PubChem BioAssay AID493246, Drosophila RNAi Screening Center, 2011

Screen: 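Identify essential fly genes by loss of cell viability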 (primary screen)
Cells: Drosophila Kc and S2R+ cells
Reagent: long dsRNA against Drosophila genes
Detection: 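Cell number per well after knock-down, printed as raw plate values; calls were based on per-plate z-scores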
Reading the numbers: Kc cell number and S2R+ cell number: higher = more cells remaining
Hit rule: 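Counted as a hit if cell number falls by a z-score of at least 3 within its plate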
The deposit covers about 21,000 reagents; shown is a random part of those that have a named target and a result. Of all reagents, 429 (2%) were called active. 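Values are raw and not normalised between plates; calls rest on per-plate z-scores that were not deposited.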 Entries without a mark were called inactive. A plus sign joins genes that one reagent is predicted to hit. The record does not give: the amount of reagent, the time to read-out.

target gene,DRSC id,"Kc cell number, rep 1","Kc cell number, rep 2","S2R+ cell number, rep 1","S2R+ cell number, rep 2"
Rif1 (Rap1 interacting factor 1),DRSC05593,1.65e6,1.59e6,1.02e6,1.24e6
CG13426,DRSC06388,1.71e6,1.71e6,1.29e6,1.48e6
Cyp9b1 (Cytochrome P450 9b1),DRSC07389,1.49e6,1.54e6,1.21e6,1.30e6
Ugt37A2 (UDP-glycosyltransferase family 37 member A2),DRSC15861,1.95e6,2.00e6,1.33e6,1.31e6
osa,DRSC17022,1.37e6,1.55e6,1.16e6,1.27e6
Vajk1,DRSC01882,1.89e6,1.89e6,1.38e6,1.64e6
wrd (well-rounded),DRSC16337,6.34e5 (active),6.14e5,4.44e5,6.14e5
wrd (well-rounded),DRSC16344,1.39e6,1.53e6,1.02e6,1.06e6
nkd (naked cuticle),DRSC11376,1.64e6,1.94e6,1.16e6,1.32e6
"SdhAL (Succinate dehydrogenase, subunit A (flavoprotein)-like)",DRSC10539,1.38e6,1.44e6,1.20e6,1.17e6
TwdlL (TweedleL),DRSC16042,5.36e5,,7.48e5,
Acp36DE (Accessory gland protein 36DE),DRSC01860,1.69e6,1.60e6,1.35e6,1.52e6
CG14618,DRSC20631,1.48e6,1.55e6,1.06e6,1.20e6
fne (found in neurons),DRSC20332,1.29e6,1.26e6,7.93e5,8.99e5
Cht7 + tRNA:Cys-GCA-1-4 + tRNA:Lys-CTT-1-13,DRSC08021,1.42e6,1.37e6,1.03e6,1.15e6
CG8526,DRSC16438,1.62e6,1.80e6,1.42e6,1.58e6
Ubc84D (Ubiquitin conjugating enzyme 84D),DRSC12610,1.47e6,1.58e6,1.27e6,1.36e6
Twdlalpha (Tweedlealpha),DRSC19914,1.55e6,1.50e6,1.11e6,1.24e6
CG9555,DRSC03264,1.45e6,1.52e6,1.19e6,1.33e6
CG34393,DRSC00419,1.52e6,1.55e6,1.18e6,1.35e6
CG34393,DRSC00710,1.54e6,1.48e6,1.18e6,1.33e6
CG17982,DRSC18143,1.48e6,1.43e6,1.03e6,1.09e6
Or30a (Odorant receptor 30a),DRSC03385,1.51e6,1.65e6,1.27e6,1.42e6
CG2124,DRSC18208,1.49e6,1.44e6,1.01e6,1.07e6
orion,DRSC18213,1.68e6,1.66e6,1.08e6,1.19e6
orion,DRSC18214,1.51e6,1.50e6,1.02e6,1.15e6
djl (don juan like),DRSC12578,1.55e6,1.71e6,1.17e6,1.27e6
CG15890,DRSC19737,1.42e6,1.45e6,1.10e6,1.12e6
HP4 (Heterochromatin protein 4),DRSC10958,1.46e6,1.47e6,1.32e6,1.30e6
robo1 (roundabout 1),DRSC04712,1.52e6,1.62e6,1.20e6,1.38e6
klar (klarsicht),DRSC08718,1.62e6,1.79e6,1.30e6,1.37e6
bnl (branchless),DRSC13377,1.45e6,1.39e6,1.08e6,1.12e6
bnl (branchless),DRSC16913,1.41e6 (active),1.50e6,6.39e5,7.42e5
CG18131,DRSC00517,1.69e6,1.80e6,8.51e5,9.94e5

Continued, starting with the last 2 of the part before.
target gene,DRSC id,"Kc cell number, rep 1","Kc cell number, rep 2","S2R+ cell number, rep 1","S2R+ cell number, rep 2"
bnl (branchless),DRSC16913,1.41e6 (active),1.50e6,6.39e5,7.42e5
CG18131,DRSC00517,1.69e6,1.80e6,8.51e5,9.94e5
rhi (rhino),DRSC05996,1.56e6,1.60e6,1.20e6,1.32e6
Drat (Death resistor Adh domain containing target),DRSC06600,9.13e5,1.16e6,6.49e5,5.22e5
CG8072,DRSC10960,1.40e6,1.53e6,1.30e6,1.28e6
CG11617,DRSC00321,1.69e6,1.67e6,1.15e6,1.31e6
tll (tailless),DRSC17085,1.44e6,1.47e6,1.04e6,1.09e6
Atg17 (Autophagy-related 17),DRSC12221,1.58e6,1.88e6,1.26e6,1.36e6
Rpt1 (Regulatory particle triple-A ATPase 1),DRSC07542,4.80e5 (active),6.59e5,5.11e5,6.26e5
CR42532 (pseudo),DRSC06713,1.86e6,1.91e6,1.45e6,1.64e6
Cfp1 (CXXC finger protein 1),DRSC18128,1.55e6,1.51e6,6.86e5,7.78e5
ZnT86D (Zinc transporter 86D),DRSC16091,1.58e6,1.56e6,1.18e6,1.27e6
CG33307,DRSC01349,1.55e6,1.61e6,1.15e6,1.30e6
CG13877 + pyx,DRSC08347,1.43e6,1.19e6,9.87e5,1.24e6
CG7298,DRSC10802,1.46e6,1.55e6,1.19e6,1.17e6
CG7252,DRSC10789,1.50e6,1.52e6,1.28e6,1.21e6
CG2698,DRSC15447,1.66e6,2.04e6,1.31e6,1.38e6
CG32708,DRSC18411,1.59e6,1.70e6,1.07e6,1.23e6
CG42650,DRSC12462,1.28e6,1.48e6,1.12e6,1.18e6
Rat1 (Rat1 5'-3' exoribonuclease),DRSC02044,9.62e5,1.13e6,5.67e5,7.57e5
CG31835 + CG42585,DRSC01412,1.62e6,1.78e6,1.00e6,1.19e6
Csp (Cysteine string protein),DRSC11860,1.63e6,1.64e6,1.38e6,1.38e6
"SdhCL (Succinate dehydrogenase, subunit C-like)",DRSC16078,1.74e6,1.80e6,1.41e6,1.49e6
CG17121,DRSC15176,1.70e6,1.63e6,9.86e5,1.14e6
CG14265,DRSC18591,1.73e6,1.71e6,1.04e6,1.16e6
CG30289,DRSC03870,5.42e5,,8.74e5,
mTor (mechanistic Target of rapamycin),DRSC02811,1.37e6,1.39e6,1.07e6,1.19e6
